These are yes or no findings as the source states them, for the method shown. In cells and extracts the contact can be indirect. Some results given as binding are weak or reduced against the parent protein; the word gives no strength. Sequences can lack the tags named with a protein.
B1: VDAC2, endogenous in H9c2 cells (protein, UniProt P81155 1-295)
chain: MAECCVPVCQRPICIPPPYADLGKAARDIFNKGFGFGLVKLDVKTKSCSGVEFSTSGSSNTDTGKVSGTLETKYKWCEYGLTFTEKWNTDNTLGTEIAIEDQICQGLKLTFDTTFSPNTGKKSGKIKSAYKRECINLGCDVDFDFAGPAIHGSAVFGYEGWLAGYQMTFDSAKSKLTRSNFAVGYRTGDFQLHTNVNNGTEFGGSIYQKVCEDFDTSVNLAWTSGTNCTRFGIAAKYQLDPTASISAKVNNSSLIGVGYTQTLRPGVKLTLSALVDGKSFNAGGHKLGLALELEA

Protein sequences, listed by entry. Tags and fused reporters are not part of them. Lines headed by an entry give the natural chain unless they say otherwise; changes in a name come on top.
UniProt P21796: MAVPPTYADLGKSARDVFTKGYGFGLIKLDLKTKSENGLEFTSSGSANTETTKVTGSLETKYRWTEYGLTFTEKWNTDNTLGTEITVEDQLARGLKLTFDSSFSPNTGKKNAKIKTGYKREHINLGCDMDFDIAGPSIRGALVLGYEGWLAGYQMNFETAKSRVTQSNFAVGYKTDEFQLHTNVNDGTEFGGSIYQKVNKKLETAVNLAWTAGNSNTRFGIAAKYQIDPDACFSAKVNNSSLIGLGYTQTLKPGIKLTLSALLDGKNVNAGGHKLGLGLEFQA
UniProt Q9Z2L0: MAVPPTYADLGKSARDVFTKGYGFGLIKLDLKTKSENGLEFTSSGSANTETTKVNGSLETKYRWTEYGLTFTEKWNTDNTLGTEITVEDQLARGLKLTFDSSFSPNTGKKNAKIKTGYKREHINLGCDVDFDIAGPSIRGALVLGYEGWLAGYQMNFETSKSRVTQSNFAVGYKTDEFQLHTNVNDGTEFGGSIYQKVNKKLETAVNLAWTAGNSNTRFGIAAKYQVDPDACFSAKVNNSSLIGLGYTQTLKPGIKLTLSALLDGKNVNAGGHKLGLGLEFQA

What was measured:
[1] = target: T1, HA-TMEM43, co-transfected in 293T cells (UniProt Q9BTV4); assay: co-IP; 293T cells co-transfected with Flag-VDAC1/2 full-length or domains and HA-TMEM43; IP of the lysates with HA antibody
T1 sequence: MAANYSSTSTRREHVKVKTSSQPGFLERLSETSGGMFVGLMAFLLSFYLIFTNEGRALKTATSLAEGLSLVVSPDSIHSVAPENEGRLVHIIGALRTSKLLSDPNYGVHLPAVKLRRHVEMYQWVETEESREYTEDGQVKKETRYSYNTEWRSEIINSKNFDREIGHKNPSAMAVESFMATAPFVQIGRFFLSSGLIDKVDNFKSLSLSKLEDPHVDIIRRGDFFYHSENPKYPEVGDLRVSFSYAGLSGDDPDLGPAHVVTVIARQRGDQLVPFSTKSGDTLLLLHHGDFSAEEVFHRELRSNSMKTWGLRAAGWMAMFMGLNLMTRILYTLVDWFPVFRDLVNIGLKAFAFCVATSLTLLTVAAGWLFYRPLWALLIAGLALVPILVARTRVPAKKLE

[2] = target: T2, HA-Flag-TMEM43 S358L mutant, stably expressed in H9c2 cells (UniProt Q9BTV4); assay: co-IP; H9c2 cells with vector, HA-Flag-TMEM43 WT or S358L; lysates of same protein amounts on anti-FLAG M2 Affinity Gel; immunoblotting of VDAC1, VDAC2 and Flag
T2 sequence: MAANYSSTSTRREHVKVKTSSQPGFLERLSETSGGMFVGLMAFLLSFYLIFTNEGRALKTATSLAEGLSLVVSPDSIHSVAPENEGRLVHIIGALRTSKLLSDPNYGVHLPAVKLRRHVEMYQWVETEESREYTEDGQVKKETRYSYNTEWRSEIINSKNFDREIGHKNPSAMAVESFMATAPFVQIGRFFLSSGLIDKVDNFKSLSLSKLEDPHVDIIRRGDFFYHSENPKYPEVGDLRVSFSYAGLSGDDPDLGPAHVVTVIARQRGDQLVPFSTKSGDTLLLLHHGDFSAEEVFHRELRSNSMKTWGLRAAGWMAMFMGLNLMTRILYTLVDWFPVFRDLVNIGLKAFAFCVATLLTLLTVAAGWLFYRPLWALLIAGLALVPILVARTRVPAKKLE

[3] = target: T3, HA-Flag-TMEM43 wild type, stably expressed in H9c2 cells (UniProt Q9BTV4); assay: as above
T3 sequence: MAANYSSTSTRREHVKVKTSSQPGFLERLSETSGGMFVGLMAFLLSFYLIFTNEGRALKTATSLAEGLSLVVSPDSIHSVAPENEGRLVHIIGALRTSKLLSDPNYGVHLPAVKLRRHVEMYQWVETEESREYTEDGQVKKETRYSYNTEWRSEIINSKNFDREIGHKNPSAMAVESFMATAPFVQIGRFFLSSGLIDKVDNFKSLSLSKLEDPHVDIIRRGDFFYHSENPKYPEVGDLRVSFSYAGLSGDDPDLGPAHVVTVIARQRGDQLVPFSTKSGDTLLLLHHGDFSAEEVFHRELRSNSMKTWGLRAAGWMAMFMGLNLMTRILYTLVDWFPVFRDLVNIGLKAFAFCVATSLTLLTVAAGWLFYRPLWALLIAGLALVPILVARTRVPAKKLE

Row | Molecule | binding [1] | binding [2] | binding [3]
1 | Flag-VDAC1 Aa50–200 (from UniProt P21796 50-200) (domain or fragment) | binds | – | –
2 | Flag-VDAC1 full-length (FL) (from UniProt P21796 1-283) | binds | – | –
3 | VDAC1, endogenous in H9c2 cells (from UniProt Q9Z2L0 1-283) | – | binds | binds
4 | B1 | – | binds | binds

From PMC12714281
